# PubChem BioAssay AID686943 – Drosophila RNAi Screening Center, 2013
# Screen: 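Fly genes whose loss alters ERK activation after insulin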 (primary screen)
# System: Drosophila S2R+ haemocyte-like cells expressing YFP-tagged ERK (Rolled)
# Reagents: long dsRNA against Drosophila genes
# Conditions: insulin stimulation versus unstimulated cells; dose and duration not given
# Read-out: 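Per-plate z-scores of phospho-ERK immunostaining normalised to YFP-tagged ERK, measured with and without insulin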
# Reading the numbers: replicate 1, z-score of dpERK with insulin and replicate 2, z-score of dpERK with insulin: higher = more active ERK per ERK-YFP after insulin; replicate 1, z-score of dpERK under basal conditions: higher = more basal active ERK per ERK-YFP; replicate 1, z-score of ERK-YFP with insulin: higher = more YFP-tagged ERK signal
# The deposit covers about 23,000 reagents; below is an unselected part of those that have a named target and a result. 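Extra replicates exist only for a retested subset of genes; insulin dose and duration not given; both raised and lowered dpERK matter.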 The numbers tell different reagents against one gene apart. Names joined by + are all predicted targets of the reagent. Reagent sequences are not shown. The record does not give: the amount of reagent, the time to read-out.
gene,dsRNA no.,"replicate 1, z-score of dpERK with insulin","replicate 2, z-score of dpERK with insulin","replicate 1, z-score of dpERK under basal conditions","replicate 1, z-score of ERK-YFP with insulin"
CG14490,1,0.41,0.38,0.42,-0.2
CG9609,1,-1.1,0.14,-0.54,0.9
CG1703,1,-0.17,-0.42,0.74,-0.02
ecd,1,0.83,0.26,1.62,-0.01
Amy-d,1,0.81,0.41,-0.1,-0.14
CG6912,1,0.55,0.45,-0.13,0.09
Bap60,1,-0.72,-1.28,-1.05,-0.21
CG5131,1,0.02,0.51,0,-0.2
saturn,1,-0.09,0.76,0.1,0.95
Fie,1,1.36,-0.43,0.61,-0.6
Obp99d,1,0.18,-0.15,-0.3,0.27
CG4186,1,-0.08,0.27,1.04,0.41
CG8028,1,0.84,0.31,-1.07,-0.25
CG9240,1,0.02,0.01,-1.01,-0.4
Gr64f,1,0.66,0.15,0.08,0.28
CG32461,1,-0.24,1.06,1.93,0.7
CG17929,1,0.03,-0.13,-0.36,-0.2
asRNA:CR43159 + yellow-k,1,0.38,0.14,-1.39,1.75
Ing3,1,0.33,1.13,0.77,1.62
dock,1,-1.4,-1.87,-0.26,1.52
Boot,1,0.88,0.3,-0.05,-0.14
Prosbeta5R2,1,-0.73,-0.66,1.21,-0.11
CG14667,1,-0.59,-1.65,-0.37,-0.66
Mabi,1,-0.29,0.55,0.86,0.19
CG33463,1,-0.1,-0.31,0.63,-1
Lnpk,1,-0.13,0.01,-0.97,0.11
ValRS,1,0.1,0.72,-0.2,0.17
pippin,1,0.29,0.6,-0.63,0.34
CG5001,1,0.92,-0.35,-0.94,-0.69
GC1,1,-0.92,0.33,-0.62,1.56
BCAS2,1,-0.08,1.07,0.09,-0.32
Ssl,1,0.51,0.32,0.38,-0.31
CG43347,1,0.05,0.28,1.75,-1.22
CG43347,2,-4.46,0.34,-0.12,-4.47
CG43347,3,0.18,-0.13,4.92,-3.75
CG43347,4,-2.8,-0.21,-1.21,1.05
dpr1,1,-0.87,-0.4,-0.42,0.34
dpr1,2,-0.72,-0.22,-0.55,0.13
CG3588,1,0.54,0.27,-0.77,0.44

An excerpt taken from the entries so far, for reference:
gene,dsRNA no.,"replicate 1, z-score of dpERK with insulin","replicate 2, z-score of dpERK with insulin","replicate 1, z-score of dpERK under basal conditions","replicate 1, z-score of ERK-YFP with insulin"
CG4186,1,-0.08,0.27,1.04,0.41
CG8028,1,0.84,0.31,-1.07,-0.25
